The values that follow come from patent publication US20110293648A1 (LUDWIG INSTITUTE FOR CANCER RESEARCH, published 2011).

No constants are given. Whether binding was seen depends on the method and setting. Binding calls can cover weak binding; strength is not graded here.

For this assay, the target named is HLA-DRB3*0202 (human). The experiment in a line: not specified ('The methods described above').

B1: SSX-2 peptide p101-115 (peptide)
peptide: FGRLQGISPKIMPKK
On to B1, for which the binding result is listed as “binds”.

B2: SSX-2 peptide p98-112 (peptide)
peptide: QMTFGRLQGISPKIM
notes: also called p98-111 (as printed once); SSX-2 98-112
In the case of B2, the binding entry was “binds”.
